Assay results: the supplement of paper PMC10849652
The list shows a part of the results.

Protein sequences, listed by entry. Tags and fused reporters are not part of them. Lines headed by an entry give the natural chain unless they say otherwise; changes in a name come on top.
UniProt Q15828: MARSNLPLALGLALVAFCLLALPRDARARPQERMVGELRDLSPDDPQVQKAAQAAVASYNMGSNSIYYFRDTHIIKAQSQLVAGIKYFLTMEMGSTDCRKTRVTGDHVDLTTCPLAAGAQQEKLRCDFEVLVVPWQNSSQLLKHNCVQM
UniProt Q8WV16: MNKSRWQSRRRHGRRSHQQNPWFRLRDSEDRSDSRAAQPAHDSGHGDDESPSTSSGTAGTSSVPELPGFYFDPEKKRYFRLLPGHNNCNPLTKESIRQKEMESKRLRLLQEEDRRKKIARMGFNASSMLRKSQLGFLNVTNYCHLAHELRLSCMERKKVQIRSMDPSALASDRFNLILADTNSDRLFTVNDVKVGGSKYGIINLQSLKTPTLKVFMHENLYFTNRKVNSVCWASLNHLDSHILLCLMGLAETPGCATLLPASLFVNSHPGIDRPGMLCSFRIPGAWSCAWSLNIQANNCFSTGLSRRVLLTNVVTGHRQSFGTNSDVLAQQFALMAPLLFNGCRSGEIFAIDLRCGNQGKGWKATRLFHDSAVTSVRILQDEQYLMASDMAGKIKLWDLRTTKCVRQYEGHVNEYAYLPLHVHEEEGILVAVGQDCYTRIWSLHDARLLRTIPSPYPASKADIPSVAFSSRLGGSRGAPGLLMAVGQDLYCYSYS
UniProt Q92564: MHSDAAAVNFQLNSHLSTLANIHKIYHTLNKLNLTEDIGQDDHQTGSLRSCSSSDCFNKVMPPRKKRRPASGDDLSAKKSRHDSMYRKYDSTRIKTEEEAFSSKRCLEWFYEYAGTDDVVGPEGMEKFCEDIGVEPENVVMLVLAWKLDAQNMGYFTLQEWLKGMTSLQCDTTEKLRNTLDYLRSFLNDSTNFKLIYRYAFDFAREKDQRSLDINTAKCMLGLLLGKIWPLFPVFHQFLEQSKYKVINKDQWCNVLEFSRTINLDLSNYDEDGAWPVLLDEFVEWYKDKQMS
UniProt Q15438: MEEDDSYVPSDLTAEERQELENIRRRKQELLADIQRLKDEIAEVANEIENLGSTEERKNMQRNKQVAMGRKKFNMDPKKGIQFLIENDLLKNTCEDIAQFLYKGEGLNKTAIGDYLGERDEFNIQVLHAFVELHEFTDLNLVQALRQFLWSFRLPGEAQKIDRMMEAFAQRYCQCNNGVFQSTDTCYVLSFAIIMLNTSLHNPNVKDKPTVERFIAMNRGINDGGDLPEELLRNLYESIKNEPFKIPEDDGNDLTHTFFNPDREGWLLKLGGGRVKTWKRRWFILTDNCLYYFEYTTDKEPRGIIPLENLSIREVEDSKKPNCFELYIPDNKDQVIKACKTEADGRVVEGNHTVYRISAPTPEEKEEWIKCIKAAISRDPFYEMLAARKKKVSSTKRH
UniProt Q9Y5B0: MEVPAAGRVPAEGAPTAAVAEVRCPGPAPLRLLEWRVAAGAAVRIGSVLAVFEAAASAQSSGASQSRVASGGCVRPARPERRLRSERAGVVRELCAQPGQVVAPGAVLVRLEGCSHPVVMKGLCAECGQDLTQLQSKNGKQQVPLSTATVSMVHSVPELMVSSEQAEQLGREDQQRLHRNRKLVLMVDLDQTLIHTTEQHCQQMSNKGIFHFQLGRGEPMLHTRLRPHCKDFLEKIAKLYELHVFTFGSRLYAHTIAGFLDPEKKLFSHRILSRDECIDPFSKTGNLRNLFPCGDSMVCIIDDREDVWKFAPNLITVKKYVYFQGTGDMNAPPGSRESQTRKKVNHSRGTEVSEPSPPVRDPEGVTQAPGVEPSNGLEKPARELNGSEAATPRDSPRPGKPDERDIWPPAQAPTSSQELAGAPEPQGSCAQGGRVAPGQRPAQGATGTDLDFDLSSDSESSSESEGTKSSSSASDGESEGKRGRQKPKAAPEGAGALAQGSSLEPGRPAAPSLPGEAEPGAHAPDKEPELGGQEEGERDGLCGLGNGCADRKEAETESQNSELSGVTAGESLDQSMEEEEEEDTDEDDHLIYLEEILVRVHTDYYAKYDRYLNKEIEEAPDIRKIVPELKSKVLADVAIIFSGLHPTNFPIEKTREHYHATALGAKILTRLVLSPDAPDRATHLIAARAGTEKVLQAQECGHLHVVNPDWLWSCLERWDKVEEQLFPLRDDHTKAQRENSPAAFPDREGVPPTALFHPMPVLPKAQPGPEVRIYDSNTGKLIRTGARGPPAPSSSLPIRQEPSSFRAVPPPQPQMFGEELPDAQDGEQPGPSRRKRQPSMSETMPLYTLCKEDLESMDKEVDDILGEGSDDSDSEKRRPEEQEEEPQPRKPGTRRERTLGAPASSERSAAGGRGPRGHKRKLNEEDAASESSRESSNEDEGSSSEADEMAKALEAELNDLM
UniProt Q9BWK5: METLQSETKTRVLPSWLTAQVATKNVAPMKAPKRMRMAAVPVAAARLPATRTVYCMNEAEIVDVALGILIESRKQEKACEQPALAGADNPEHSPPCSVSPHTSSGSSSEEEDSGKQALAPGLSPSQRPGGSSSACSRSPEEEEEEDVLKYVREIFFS
UniProt Q99418: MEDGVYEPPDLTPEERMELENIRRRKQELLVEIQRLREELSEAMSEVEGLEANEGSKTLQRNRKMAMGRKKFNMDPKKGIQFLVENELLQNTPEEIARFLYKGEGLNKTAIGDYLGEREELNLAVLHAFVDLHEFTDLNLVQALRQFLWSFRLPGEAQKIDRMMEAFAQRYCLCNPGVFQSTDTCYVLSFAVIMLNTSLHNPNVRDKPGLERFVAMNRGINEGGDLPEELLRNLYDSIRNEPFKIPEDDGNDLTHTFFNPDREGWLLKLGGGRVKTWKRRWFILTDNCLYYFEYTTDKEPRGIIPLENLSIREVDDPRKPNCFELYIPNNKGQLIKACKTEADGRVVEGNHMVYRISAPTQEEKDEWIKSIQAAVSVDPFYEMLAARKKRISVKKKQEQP
UniProt Q9NSA3: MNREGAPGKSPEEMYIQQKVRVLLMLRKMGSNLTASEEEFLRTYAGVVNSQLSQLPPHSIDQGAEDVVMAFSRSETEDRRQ
UniProt Q9UIK4: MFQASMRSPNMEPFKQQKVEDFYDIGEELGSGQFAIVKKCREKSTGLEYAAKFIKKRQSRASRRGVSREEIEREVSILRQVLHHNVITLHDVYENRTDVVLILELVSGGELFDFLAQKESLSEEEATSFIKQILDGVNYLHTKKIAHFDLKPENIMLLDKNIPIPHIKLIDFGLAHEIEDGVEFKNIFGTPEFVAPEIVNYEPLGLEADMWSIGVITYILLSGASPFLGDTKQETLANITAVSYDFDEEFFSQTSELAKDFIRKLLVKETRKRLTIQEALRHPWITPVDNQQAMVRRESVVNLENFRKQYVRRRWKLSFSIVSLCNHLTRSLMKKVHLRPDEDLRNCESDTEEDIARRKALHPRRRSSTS
UniProt O95715: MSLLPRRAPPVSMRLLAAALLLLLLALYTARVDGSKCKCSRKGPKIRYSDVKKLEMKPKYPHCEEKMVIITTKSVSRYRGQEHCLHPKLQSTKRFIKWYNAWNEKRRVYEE
UniProt Q9H9R9: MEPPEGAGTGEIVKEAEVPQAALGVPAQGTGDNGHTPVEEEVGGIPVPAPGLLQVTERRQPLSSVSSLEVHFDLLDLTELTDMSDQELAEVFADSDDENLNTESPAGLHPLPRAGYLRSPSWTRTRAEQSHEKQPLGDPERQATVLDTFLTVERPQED
UniProt Q9UBX1: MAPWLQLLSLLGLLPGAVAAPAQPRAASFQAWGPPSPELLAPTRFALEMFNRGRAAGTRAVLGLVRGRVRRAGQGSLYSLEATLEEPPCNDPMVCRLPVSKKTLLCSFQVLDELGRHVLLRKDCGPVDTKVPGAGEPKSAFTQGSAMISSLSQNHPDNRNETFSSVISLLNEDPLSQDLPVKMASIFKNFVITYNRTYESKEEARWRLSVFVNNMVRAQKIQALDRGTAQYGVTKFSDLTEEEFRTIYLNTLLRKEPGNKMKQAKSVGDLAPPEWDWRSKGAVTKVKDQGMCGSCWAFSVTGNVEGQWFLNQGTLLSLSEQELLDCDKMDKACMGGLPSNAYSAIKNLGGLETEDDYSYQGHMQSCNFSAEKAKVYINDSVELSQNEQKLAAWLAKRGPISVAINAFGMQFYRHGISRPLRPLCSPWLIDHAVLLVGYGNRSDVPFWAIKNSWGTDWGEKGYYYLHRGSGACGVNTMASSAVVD
UniProt O95196: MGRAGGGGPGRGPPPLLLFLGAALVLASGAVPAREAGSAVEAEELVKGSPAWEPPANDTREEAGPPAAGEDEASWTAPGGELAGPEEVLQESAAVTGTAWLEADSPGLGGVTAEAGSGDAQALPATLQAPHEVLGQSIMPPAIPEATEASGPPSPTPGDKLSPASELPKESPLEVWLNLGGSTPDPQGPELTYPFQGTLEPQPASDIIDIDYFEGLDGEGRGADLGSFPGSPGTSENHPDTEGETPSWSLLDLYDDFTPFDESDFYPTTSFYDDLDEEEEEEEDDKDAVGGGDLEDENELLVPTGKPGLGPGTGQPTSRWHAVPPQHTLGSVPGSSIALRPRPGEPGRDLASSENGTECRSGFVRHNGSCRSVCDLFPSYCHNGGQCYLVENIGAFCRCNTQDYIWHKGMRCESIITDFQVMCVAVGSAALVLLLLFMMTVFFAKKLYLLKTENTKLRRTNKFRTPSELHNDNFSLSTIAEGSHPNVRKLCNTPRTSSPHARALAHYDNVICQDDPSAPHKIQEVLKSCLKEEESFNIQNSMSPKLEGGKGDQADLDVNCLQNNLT
UniProt Q5H9S7: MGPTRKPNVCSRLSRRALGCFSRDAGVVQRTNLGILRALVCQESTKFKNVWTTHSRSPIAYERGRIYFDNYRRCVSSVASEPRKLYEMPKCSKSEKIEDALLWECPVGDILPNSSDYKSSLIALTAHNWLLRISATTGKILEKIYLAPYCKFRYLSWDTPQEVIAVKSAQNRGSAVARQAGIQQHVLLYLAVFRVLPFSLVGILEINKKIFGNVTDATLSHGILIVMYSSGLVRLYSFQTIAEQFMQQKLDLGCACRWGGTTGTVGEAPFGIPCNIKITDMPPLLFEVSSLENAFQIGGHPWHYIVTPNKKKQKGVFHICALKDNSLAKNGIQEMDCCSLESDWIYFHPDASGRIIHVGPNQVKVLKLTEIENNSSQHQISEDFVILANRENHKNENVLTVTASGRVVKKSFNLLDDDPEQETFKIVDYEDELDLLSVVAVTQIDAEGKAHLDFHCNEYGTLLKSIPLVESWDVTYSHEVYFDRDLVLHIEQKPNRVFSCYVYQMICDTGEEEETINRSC
UniProt Q05D32: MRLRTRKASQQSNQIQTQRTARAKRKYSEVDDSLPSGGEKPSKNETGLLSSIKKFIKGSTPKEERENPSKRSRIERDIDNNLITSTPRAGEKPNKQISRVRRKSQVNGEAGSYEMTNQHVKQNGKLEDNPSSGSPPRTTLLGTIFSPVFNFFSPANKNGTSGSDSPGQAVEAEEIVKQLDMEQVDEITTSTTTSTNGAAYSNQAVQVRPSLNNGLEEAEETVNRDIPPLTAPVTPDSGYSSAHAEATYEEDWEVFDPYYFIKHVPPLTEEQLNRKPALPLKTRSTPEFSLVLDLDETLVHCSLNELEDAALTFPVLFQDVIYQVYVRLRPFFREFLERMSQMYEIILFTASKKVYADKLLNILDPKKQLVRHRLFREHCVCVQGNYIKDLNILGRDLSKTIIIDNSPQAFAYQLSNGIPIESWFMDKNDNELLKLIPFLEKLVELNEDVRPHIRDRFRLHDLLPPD
UniProt P25774, whole entry, looked up: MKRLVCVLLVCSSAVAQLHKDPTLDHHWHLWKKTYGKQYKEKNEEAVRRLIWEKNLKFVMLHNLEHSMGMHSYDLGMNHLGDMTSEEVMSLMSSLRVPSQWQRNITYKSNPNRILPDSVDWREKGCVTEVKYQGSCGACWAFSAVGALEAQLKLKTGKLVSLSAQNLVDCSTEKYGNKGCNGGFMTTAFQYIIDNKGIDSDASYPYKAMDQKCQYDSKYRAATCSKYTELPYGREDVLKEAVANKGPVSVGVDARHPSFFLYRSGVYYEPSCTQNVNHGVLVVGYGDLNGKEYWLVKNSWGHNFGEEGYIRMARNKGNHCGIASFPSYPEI
UniProt Q8WYA6: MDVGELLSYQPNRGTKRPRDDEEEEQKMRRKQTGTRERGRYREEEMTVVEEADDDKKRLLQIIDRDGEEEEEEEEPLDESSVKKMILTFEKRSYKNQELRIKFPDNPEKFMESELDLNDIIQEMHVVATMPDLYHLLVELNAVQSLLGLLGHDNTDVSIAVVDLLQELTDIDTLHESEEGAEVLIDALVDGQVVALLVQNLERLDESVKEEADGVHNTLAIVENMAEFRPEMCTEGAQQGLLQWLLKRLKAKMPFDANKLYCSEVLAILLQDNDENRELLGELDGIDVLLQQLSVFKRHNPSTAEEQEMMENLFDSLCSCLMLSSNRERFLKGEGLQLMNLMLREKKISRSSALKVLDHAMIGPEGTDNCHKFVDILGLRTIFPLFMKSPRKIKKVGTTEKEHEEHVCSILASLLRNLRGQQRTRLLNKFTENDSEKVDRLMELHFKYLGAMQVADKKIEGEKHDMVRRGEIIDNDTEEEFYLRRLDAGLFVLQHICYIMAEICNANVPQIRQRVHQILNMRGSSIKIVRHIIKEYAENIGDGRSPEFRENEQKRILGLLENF

Compound: O=C(O)c1ccc2c(c1)nc(Nc1cccc(Cl)c1)c1ccncc12 [silmitasertib]
Assay: log2 fold change, soluble protein after heating vs DMSO (PISA); higher = thermal stabilisation; K562 cells, 10 uM, 30 min; active = over 0.2 and 3.5 SD of the protein, either way, in both replicates (recomputed)
Procedure, shortened: (§1)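 Values are thermal stability changes relative to control samples and are taken from duplicates. They are stated as log2 fold changes. Before quantification by TMTpro 16plex LC-MS/MS with equalised channel sums, K562 cells at 2×10^6 cells/mL were treated with 10 μM compound for 30 min, heated in aliquots for 3 min across 48°C-58°C, pooled, extracted in PBS with 0.5% NP-40 at 4°C, and centrifuged at 21,000xg for 90 min to give the soluble supernatant.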

log2 fold change, inactive:
CST6 (UniProt Q15828) 0.256, DCAF4 (UniProt Q8WV16) 0.066, DAPK1 isoform 3 (UniProt P53355) 0.064, DCUN1D4 isoform 3 (UniProt Q92564) -0.137, CTNS isoform 2 (UniProt O60931) 0.202, CYTH1 (UniProt Q15438) -0.037, DCAF12 (UniProt Q5T6F0) 0.051, CYBRD1 (UniProt Q53TN4) 0.086, CTDP1 (UniProt Q9Y5B0) 0.014, DCUN1D5 (UniProt Q9BTE7) 0.06, CYREN (UniProt Q9BWK5) -0.063, CYTH2 (UniProt Q99418) -0.038, CTNNBIP1 (UniProt Q9NSA3) -0.069, DAPK2 isoform 2 (UniProt Q9UIK4) -0.054, CXCL14 (UniProt O95715) -0.036

Compound: O=C1NC(=O)C(c2cnc3ccccn23)=C1c1cn2c3c(cc(F)cc13)CN(C(=O)N1CCCCC1)CC2
Assay: as above
Procedure, shortened: as §1

log2 fold change, inactive:
CST6 (UniProt Q15828) -0.16, DBNDD1 isoform 3 (UniProt Q9H9R9) -0.024, DCAF4 (UniProt Q8WV16) -0.096, DAPK1 isoform 3 (UniProt P53355) 0.259, DCUN1D4 isoform 3 (UniProt Q92564) -0.182, CYTH1 (UniProt Q15438) -0.076, DCBLD1 (UniProt Q8N8Z6) -0.015, CXXC5 (UniProt Q7LFL8) 0.022, CXorf40B (UniProt Q96DE9) -0.061, CTSF (UniProt Q9UBX1) 0.1, DCP2 (UniProt Q8IU60) 0.048, CTDP1 (UniProt Q9Y5B0) 0.088, CSPG5 (UniProt O95196) -0.16, DCAF17 (UniProt Q5H9S7) -0.153, CTDSPL2 (UniProt Q05D32) 0.201, CUL7 isoform 2 (UniProt Q14999) 0.15, CTR9 (UniProt Q6PD62) 0.037, CYP4V2 (UniProt Q6ZWL3) 0.009, CTIF (UniProt O43310) -0.227

Compound: c1cc(OCCN2CCCCC2)cc(-c2n[nH]c3ccc(-c4nnc[nH]4)cc23)c1
Assay: as above
Procedure, shortened: as §1

log2 fold change, inactive:
CST6 (UniProt Q15828) 0.269, DCAF4 (UniProt Q8WV16) -0.094, DCUN1D4 isoform 3 (UniProt Q92564) 0.075, CTNS isoform 2 (UniProt O60931) -0.032, CYTH1 (UniProt Q15438) -0.245, CTSS (UniProt P25774) -0.089, DCAF12 (UniProt Q5T6F0) 0.055, CYBRD1 (UniProt Q53TN4) -0.161, CSPG5 (UniProt O95196) -0.03, DCAF17 (UniProt Q5H9S7) -0.038, CYREN (UniProt Q9BWK5) 0.175, CWF19L2 (UniProt Q2TBE0) -0.001, CTR9 (UniProt Q6PD62) -0.093, CTNNBL1 (UniProt Q8WYA6) -0.068, CYP4V2 (UniProt Q6ZWL3) 0.011
